# Experimental data taken from PubChem BioAssay AID504809 (National Center for Advancing Translational Sciences (NCATS), 2011).
# All entries are inconclusive by the source's own rule. Clear calls are listed elsewhere. Calls follow the shape of the dose curve; as a rule, active = well fitted curve in the direction sought with a large enough effect; inconclusive = small, poorly fitted or top-dose-only effect, or another doubt; inactive = no such curve, though single readings can be large or run the other way. A potency beside an inconclusive call is a rough fit, not a confirmed value.
# Test: Followup screen for small molecules that induce DNA re-replication in MCF 10A normal breast cells
# Conditions: MCF 10A DNA re-replication, Hoechst nuclear intensity, 48 h
# Source text: NIH Molecular Libraries Probe Production Network [MLPCN] NIH Chemical Genomics Center [NCGC] MLPCN Grant: Fast Track K99 CA136555 Assay Provider: Melvin DePamphilis, NICHD, NIH Assay Overview Eukaryotic cells normally restrict genome duplication to once per cell division. When this process is aberrant, DNA re-replication occurs when cells reinitiate DNA replication before the first round of replication is complete. DNA re-replication induces the DNA damage response, arrests cell proliferation, and triggers apoptosis. The cell cycle components cyclin A, Cdt-1, Cdc6 and geminin are critical regulators of this process and their misregulation results in DNA re-replication in normal and cancer cells. To identify compounds that induce re-replication in normal cells, an image-based assay was used to measure DNA content of nuclei, as detected by the fluorescent DNA binding dye, Hoechst. Cell nuclei were imaged by a fluorescence scanning plate imager and compounds that induce DNA re-replication were identified by the increase of nuclei with elevated fluorescence intensity.
# Assay Protocol Summary For screening, 250 cells in 5 uL/well were dispensed into black clear 1536-well plates (Aurora) using a solenoid-based dispenser. Following transfer of 23 nL compound or DMSO vehicle by a pin tool, the plates were incubated 48 hr at 37 C and 5% CO2. […]
compound,measurement,value
CCCCCCN(CCCCCC)C(=O)Cc1c(-c2ccc(F)cc2)[nH]c2ccccc12,Potency,"inconclusive: 7.55 µM [activator, full curve, poor fit]"
